According to PubChem BioAssay AID493014 (National Center for Advancing Translational Sciences (NCATS), 2011):
Some of the results follow. Further columns of the screen follow, without active or inactive calls. Most of these compounds were active or inconclusive in the main read-out, so they are no random draw. Words in brackets tell the shape of the fitted curve; partial curves, single points and poor fits give uncertain potencies.

Assay: qHTS Assay to Find Inhibitors of Chronic Active B-Cell Receptor Signaling
Conditions: ABC-DLBCL IkBa-CBG/CBR reporter, luminescence ratio (green luciferase fused to IkBa over red control in TMD8 lymphoma cells), 4 h
How it was run: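 Compounds up to 46 uM were incubated four hours with TMD8 cells whose green CBG68 luciferase is fused to IkappaBalpha; red CBR luminescence normalised the signal, and concentration-effect curves were fitted to fusion, red and ratio data.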

[1] = measured here: CBR red luminescence, cell number
[2] = measured here: IkBa-CBG green luminescence

SMILES | AC50 [1] | AC50 [2]
O=C(NNC(=O)c1ccccc1[N+](=O)[O-])c1ccccc1[N+](=O)[O-] | 10 µM [falling, single point] | 
COc1ccccc1NC(=O)CSc1nc(O)c(Cc2ccccc2)c(=O)[nH]1 | 16.4 µM [falling, single point] | 
O=C(COC(=O)c1ccccc1NC(=O)c1ccco1)NC1CC1 | 11.2 µM [falling, partial curve, poor fit] | 
c1ccc2nc(-c3ccc(N4CCOCC4)cc3)ccc2c1 | 0.0058 µM [rising, full curve, poor fit] | 
CCC(=O)n1nc(-c2ccccc2)nc1SCC(=O)Nc1ccc(C)cc1 | 4.47 µM [falling, full curve, poor fit] | 
COc1ccccc1NC(=O)CN(Cc1ccco1)C(=O)c1cccs1 | 23.1 µM [falling, single point] | 
CCOc1cc(NC(=O)C2CC2)c(OCC)cc1NC(=O)c1ccccn1 | 1.46 µM [rising, full curve, poor fit] | 
C#CCOCCOCCOCCNc1nc(N2CCN(C(=O)C([C@@H](C)CC)n3cc(C(N)CO)nn3)CC2)nc(N2CCN(C(=O)[C@H](CCC(=O)O)n3cc(C(N)[C@H](C)CC)nn3)CC2)n1 (stereo not given in full) | 5.62 µM [rising, single point] | 
COc1cc2c(cc1OC)N1C(=O)CC(OCC(=O)O)C3C4CC5(CCN5C(=O)C4=O)C2C31 (stereo not given) | 11.2 µM [falling, partial curve, poor fit] | 
CCN(CC(=O)Nc1cc(Cl)ccc1C)C(=O)C1CC1 |  | 18.4 µM [falling, partial curve, poor fit]
O=C(Nc1cccc(Cl)c1)c1ccc(Cn2cc(Cl)cn2)cc1 | 5.17 µM [falling, partial curve, poor fit] | 
COc1cc(OC)cc(C(=O)N/N=C\c2ccoc2)c1 | 3.55 µM [falling, partial curve] | 17.8 µM [falling, single point]
CC1=C[C@H]2Cc3cc(C)cc(C)c3S(=O)(=O)[C@@H]2C=C1 |  | 20.6 µM [rising, partial curve, poor fit]
CC1CCN(CCOCCOc2ccc(Br)cc2Cl)CC1 | 29.1 µM [falling, partial curve, poor fit] | 
COc1ccc(C2(O)CC3CCC(C2)N3c2cc(C)nc(-c3ccccc3)n2)cc1 (stereo not given) | 12.6 µM [falling, partial curve, poor fit] | 
COc1ccccc1Nc1nc(N)nc(CSC(=S)N2CCN(c3ccccc3)CC2)n1 | 0.251 µM [rising, full curve, poor fit] | 
CC1=NN=C(c2ccccc2)C(c2c[nH]c3ccccc23)N1O (stereo not given) | 0.058 µM [rising, full curve, poor fit] | 
O=C(NCc1ccncc1)/C(=C/c1cccc([N+](=O)[O-])c1)NC(=O)c1ccccc1 | 20 µM [rising, single point] | 
O=C(NCC1CCCO1)c1csc(Nc2cccc3ccccc23)n1 (stereo not given) | 31.6 µM [falling, single point] | 
CN(C(=O)/C=C/c1ccccc1)C1CCS(=O)(=O)C1 (stereo not given) | 2.91 µM [rising, full curve] | 
COC(=O)c1cc(C(=O)NCc2ccccc2)c(=O)[nH]c1C | 1.12 µM [falling, full curve, poor fit] | 

SMILES | AC50 [1] | AC50 [2]
Cc1ccc(C)c(NC(=S)c2ccc3ccccc3n2)c1 | 23.1 µM [rising, single point] | 
COc1cccc(NC(=O)Nc2cccnc2)c1 | 25.1 µM [falling, partial curve, poor fit] | 
CC1(C)Cc2cccc(OCC(=O)Nc3nccs3)c2O1 | 6.31 µM [falling, single point] | 
COc1ccccc1NC(=O)CSC1=NC(=O)C(NC(C)=O)C(=O)N1 (stereo not given) | 18.4 µM [falling, single point] | 
O=c1[nH]cnc2nn(-c3ccccc3)nc12 | 17.8 µM [falling, single point] | 
COc1ccc(/C=N\NC(=O)c2sccc2C)cc1Cn1nc(C)cc1C | 8.91 µM [falling, partial curve, poor fit] | 
COc1ccc(-c2nc(SCC(=O)Nc3nccs3)c(-c3ccc(Cl)cc3)[nH]2)cc1 | 32.6 µM [falling, single point] | 14.6 µM [rising, partial curve, poor fit]
CCN(CC)C(=O)[C@H]1C[C@H](CC(=O)NCc2ccc(OC)c(OC)c2)C(=O)N2CCc3c([nH]c4ccc(Cl)cc34)[C@]12C | 20.6 µM [falling, partial curve, poor fit] | 
CC1(C)C2CC=C(/C=N/NC(=O)c3ccccc3O)C1C2 (stereo not given) | 29.1 µM [falling, partial curve, poor fit] | 
Fc1ccc(NC(=S)Nc2cccc(Cl)c2)cc1 | 0.517 µM [rising, full curve, poor fit] | 
O=C(Nc1ccon1)c1cc2c(s1)CCCCCC2 | 14.6 µM [falling, single point] | 
CCn1cc(/C=N/NC(=O)c2ccc3c(c2)OCO3)cn1 | 9.2 µM [falling, partial curve] | 
O=C(Nc1ccc(F)cc1F)c1cc(Cl)sc1Cl | 0.631 µM [rising, full curve, poor fit] | 
CC(C)CN(CC(C)C)S(=O)(=O)c1cc([N+](=O)[O-])ccc1N1CCCCCC1 | 3.98 µM [falling, full curve, poor fit] | 
CCOC(=O)c1c(C(C)(C)C)oc2ccc(O)cc12 | 31.6 µM [rising, single point] | 
C=C(C)c1cccc(C(C)(C)NC(=O)Nc2ccc(OC)nc2)c1 | 35.5 µM [falling, single point] | 
OCc1cc(Br)ccc1OCc1nc2ccccc2s1 | 0.355 µM [falling, full curve] | 
N#CC1=C(N)NC(SCc2ccc(Br)cc2)=C(C#N)C12CCCCC2 | 23.1 µM [falling, single point] | 20.6 µM [rising, single point]
Cc1cccc(Cn2cc(/C=C/[N+](=O)[O-])c3ccccc32)c1 |  | 35.5 µM [falling, partial curve, poor fit]
CC(=O)Cc1nsc(NC(=O)c2ccc(COc3ccccc3Cl)o2)n1 | 25.1 µM [falling, single point] | 
Cc1ccccc1NC(=O)C(=O)NCCc1ccccc1 | 13 µM [falling, partial curve] | 

Arranged by number of heavy atoms (high to low): three of the compounds above
SMILES | AC50 [1] | AC50 [2]
CCN(CC)C(=O)[C@H]1C[C@H](CC(=O)NCc2ccc(OC)c(OC)c2)C(=O)N2CCc3c([nH]c4ccc(Cl)cc34)[C@]12C | 20.6 µM [falling, partial curve, poor fit] | 
C=C(C)c1cccc(C(C)(C)NC(=O)Nc2ccc(OC)nc2)c1 | 35.5 µM [falling, single point] | 
CCn1cc(/C=N/NC(=O)c2ccc3c(c2)OCO3)cn1 | 9.2 µM [falling, partial curve] | 

A few values from the list.
AC50 [1] with `Cc1ccccc1NC(=O)C(=O)NCCc1ccccc1` reads 13 µM [falling, partial curve]
AC50 [1] with `CC1(C)C2CC=C(/C=N/NC(=O)c3ccccc3O)C1C2` (stereo not given) reads 29.1 µM [falling, partial curve, poor fit]

More records follow:

SMILES | AC50 [1] | AC50 [2]
O=C(NCCC1=CCCCC1)c1cc(-c2ccccn2)nc2ccccc12 | 25.1 µM [rising, partial curve, poor fit] | 
Cc1cc(/C=C2/C(=N)N3C(c4ccccc4)=CSC3=NC2=O)c(C)n1-c1ccccc1 | 0.103 µM [rising, partial curve, poor fit] | 
Cc1ccc(-n2ncc(C(=O)NCc3ccc4c(c3)OCO4)c2NC(=O)c2ccco2)cc1C | 35.5 µM [rising, partial curve, poor fit] | 
Cc1cccc(C)c1N1C(=O)CC(N2CCSCC2)C1=O (stereo not given) | 35.5 µM [falling, single point] | 
COc1ccc(CNc2ncccc2[N+](=O)[O-])cc1 | 6.31 µM [rising, full curve, poor fit] | 
Cc1[nH]c2ccccc2c1C(=O)CN1CCSCC1 | 10 µM [rising, partial curve] | 
CCOC(=O)C1=C(CSc2nc(C)cc(C)c2C#N)OC(N)=C(C#N)C1c1ccccc1 (stereo not given) | 35.5 µM [falling, single point] | 
Fc1ccc2[nH]c3c(NCc4ccccc4)ncnc3c2c1 | 31.6 µM [falling, single point] | 
O=C(NCC(=O)N(c1cccnc1)C(C(=O)NC1CCCC1)c1ccccc1)c1ccco1 (stereo not given) | 0.708 µM [rising, full curve, poor fit] | 
O=C1N[C@H](Cc2c[nH]c3ccccc23)COC(=O)[C@H](Cc2ccc(F)cc2)C/C=C\C[C@H]1CC(=O)N(CCO)Cc1ccccc1 | 29.1 µM [falling, single point] | 
CC(C)(C)OC(=O)N/N=C/c1ccc(Br)cc1 | 2.82 µM [rising, partial curve] | 
CC(/C=C/c1ccco1)=N\NC(=O)c1cccnc1 | 16.4 µM [falling, single point] | 
O=C(Nc1ccc2c(c1)CCC2)c1ccc(F)cc1 | 32.6 µM [falling, single point] | 
CSc1ccc(C(=O)C2CCCN(C(=O)Cc3nonc3C)C2)cc1 (stereo not given) | 6.31 µM [rising, single point] | 
C=CCNC(=O)c1onc(CSc2cccc(C)c2)c1C(=O)O | 22.4 µM [falling, partial curve] | 
NC(=O)C1CCCN1S(=O)(=O)c1ccc2ccccc2c1 (stereo not given) | 20 µM [rising, partial curve, poor fit] | 
CC1(C)Cc2c(cnn2-c2ccc(F)cc2)C(NC(=O)CN2CCCCC2=O)C1 (stereo not given) | 8.91 µM [falling, partial curve] | 
COc1cc(/C=N\Nc2nc3ccccc3[nH]2)cc(OC)c1OC | 35.5 µM [falling, single point] | 
Cc1ccc(/C=N/N2C(=S)SC(C)(C)C2N(O)C(=O)Nc2ccc([N+](=O)[O-])cc2)cc1 (stereo not given) | 14.1 µM [falling, partial curve] | 
O=C(CCCN1C(=O)/C(=C/c2cccc(Br)c2)SC1=S)Nc1cccnc1 | 7.08 µM [falling, partial curve] | 
